# Reference: PubChem BioAssay AID1259354 (Paczesny and Yang Labs, IUPUI and University of Michigan, 2018)
# By UniProt entry, the sequences of proteins in these tests, tags left out. Where a name states a change or a piece, a line headed by the entry shows the natural chain unless it says otherwise.
# UniProt Q01638: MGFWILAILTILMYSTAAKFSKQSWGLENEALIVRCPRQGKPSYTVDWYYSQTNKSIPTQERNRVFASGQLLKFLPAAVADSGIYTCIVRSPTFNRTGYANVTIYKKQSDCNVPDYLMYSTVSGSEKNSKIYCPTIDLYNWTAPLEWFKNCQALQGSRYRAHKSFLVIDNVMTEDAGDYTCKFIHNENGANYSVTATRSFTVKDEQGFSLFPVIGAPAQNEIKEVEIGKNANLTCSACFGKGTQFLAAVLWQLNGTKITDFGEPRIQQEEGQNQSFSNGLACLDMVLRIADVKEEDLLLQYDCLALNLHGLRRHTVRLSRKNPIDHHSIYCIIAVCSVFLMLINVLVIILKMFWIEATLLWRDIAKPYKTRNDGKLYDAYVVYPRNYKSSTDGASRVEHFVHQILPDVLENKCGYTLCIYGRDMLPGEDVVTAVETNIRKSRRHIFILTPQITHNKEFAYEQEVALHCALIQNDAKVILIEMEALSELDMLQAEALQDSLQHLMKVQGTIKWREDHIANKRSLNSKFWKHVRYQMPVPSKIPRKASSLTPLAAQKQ
# About 1,800 (2.3%) of roughly 78,000 compounds were called active. The shares of active, inactive and inconclusive entries below differ from those in the screen. No stated cut-off is given here; in the data, active means inhibition above about 30%; inconclusive means mostly about 10% to 28%; inactive means weaker than that.
# Biological target: Interleukin-1 receptor-like 1 (Homo sapiens) (UniProt Q01638)
# Assay: blocks human ST2 binding to IL-33, primary screen, biochemical, AlphaLISA (AID 1259354)
# Settings: AlphaLISA ST2-Fc/biotin-IL-33 interaction, 1 h; at 17 µM, active compounds read high
row,Compound,inhibition
1,OC[C@@]1(O)CO[C@@H](OC[C@H]2O[C@@H](OCc3ccccc3)[C@H](O)[C@@H](O)[C@@H]2O)[C@@H]1O,inconclusive: 17%
2,Cc1cc(C)c(NC(=O)CN2CCN(Cc3ccccc3F)S2(=O)=O)c(C)c1,inactive
3,COc1ccc(-c2ccc(C(=O)N(C)Cc3csc(C)n3)o2)cc1,inconclusive: 23%
4,Cc1ccc(N2CCCS2(=O)=O)cc1NC(=O)c1ccccc1Br,inactive
5,COc1ccc2c(CC#N)c[nH]c2c1,inconclusive: 15%
6,COCC(=O)N1CC[C@@H](CC(=O)O)[C@@H](CCN2CCN(c3cccc(C(F)(F)F)c3)CC2)C1,inconclusive: 13%
7,CC(=O)N1CCCn2nc(C(=O)NCc3ccc4c(c3)CCCO4)cc2C1,inactive
8,Cc1cc(C)cc(N(C(=O)c2ccccc2Br)C2C=CS(=O)(=O)C2)c1 (centres undefined),inconclusive: 12%
9,CCNc1nc(NC(C)C)nc(Oc2ccc(OCCOc3ccccc3C)nn2)n1,inactive
10,COc1ccc(Cl)cc1-c1ncccc1C(=O)N1C[C@H]2CC[C@@H]1C2,inconclusive: 12%
11,Cc1cc(=O)oc(C)c1C(=O)NCCc1ccc(Cl)cc1,inactive
12,Cc1ccc(-n2c(SCC(=O)Nc3ccc(C)c(Cl)c3)nc3c(c2=O)SCC3)cc1,inconclusive: 26%
13,CCSc1nc(CC(=O)N[C@H]2CCN(Cc3ccccc3)C2)cs1,inconclusive: 25%
14,CCOc1ccc(NC(=O)Nc2ccc(Cl)cc2)cc1,inconclusive: 10%
15,CCc1cc2c(=O)c(Oc3ccccc3)coc2cc1O,inactive
16,Cc1ccc(CN2CCCN(S(=O)(=O)c3ccc(Br)s3)CC2)cc1,active: 35%
17,COc1ccc(CN2CCCN(C)CC2)cc1Br,inactive
18,COC(=O)c1cccc(C2CC(=O)Nc3c2cnn3CC2CCCCC2)n1 (centres undefined),inconclusive: 20%
19,COc1ccccc1CN1C(=O)CCC1(C)C(=O)NC1CCC(C)CC1 (centres undefined),inactive
20,CCN(CC)c1ccc(C2OCC3(CO2)SC2=NCN(C)CN2C3=O)cc1 (centres undefined),inconclusive: 10%

# A section taken from the entries so far, for reference:
row,Compound,inhibition
15,CCc1cc2c(=O)c(Oc3ccccc3)coc2cc1O,inactive
16,Cc1ccc(CN2CCCN(S(=O)(=O)c3ccc(Br)s3)CC2)cc1,active: 35%
17,COc1ccc(CN2CCCN(C)CC2)cc1Br,inactive

# The listing continues.

row,Compound,inhibition
1,CC(=O)c1ccc(NC(=O)c2cccc(C)c2)cc1,inactive
2,CCOC(=O)C1C(=O)C=C(c2ccc(C)cc2)CC1c1cccc(F)c1 (centres undefined),inconclusive: 16%
3,CCn1c(C(=O)O)c(CC(=O)N2CCN(c3ccccc3)CC2)c2ccccc21,inactive
4,CCOc1ccc(OCC)c(C2C(C#N)=C(N)Oc3[nH]c(=O)[nH]c(=O)c32)c1 (centres undefined),inconclusive: 14%
5,CCOc1ccc(C(C)=O)cc1N1C(=O)C2C3c4ccccc4C(c4ccccc43)C2C1=O (centres undefined),inactive
6,CCN1C(=O)/C(=C2\SC(N)=NC2=O)c2cc(Br)ccc21,inactive
7,CCN(CC)c1ccc(NC(=O)COc2ccccc2OC)cc1,inconclusive: 25%
8,CN(C)C(=O)c1ccc(-c2nnc(NCc3ccccc3)c3ccccc23)cc1,inconclusive: 17%
9,CCN(CC)CCCNC(=O)c1c[nH]n2c(=O)c(Cc3ccc(Cl)cc3)c(C)nc12,inactive
10,CCc1nc(-c2nccn2CCCc2cccnc2)c(C)[nH]1,inconclusive: 18%
11,O=C(Cc1cccs1)N1CCN=C1SCc1c(F)cccc1Cl,inactive
12,Cc1ccc2c(=O)c(C(=O)c3ccccc3)coc2c1,inconclusive: 10%
13,O=C(Nc1ccccc1)Oc1ccccc1Br,inconclusive: 14%
14,CCOc1ccc(C2=Nn3c(nnc3-c3ccccc3O)SC2)cc1Cl,inconclusive: 12%
15,CCC(Sc1nc(C)cc(C(F)(F)F)c1C#N)C(=O)Nc1cc(C)on1 (centres undefined),inconclusive: 21%
16,N#C/C(=C\c1ccccc1Cl)c1nc(-c2ccc([N+](=O)[O-])cc2)cs1,inconclusive: 29%
17,O=[N+]([O-])c1ccc(CSc2cccc3cccnc23)cc1,inconclusive: 15%
18,CCOC(=O)C1(C/C=C/c2ccccc2)CCCN(C(=O)CCc2ccco2)C1 (centres undefined),inconclusive: 12%
19,CCOC(=O)N1CC(c2ccc3ccccc3n2)=Cc2ccccc21,inconclusive: 19%
20,COc1ccccc1C(=O)Nc1nnc(Cc2ccc(Cl)cc2)s1,inactive

# Look-ups from the entries so far:
# For inhibition, O=C(Cc1cccs1)N1CCN=C1SCc1c(F)cccc1Cl reads inactive
# For inhibition, CCN1C(=O)/C(=C2\SC(N)=NC2=O)c2cc(Br)ccc21 reads inactive

# Next part

row,Compound,inhibition
1,COc1ccc(CN2CCN(C(C)C)CC2)cc1OCC(O)CN1CCCCCCC1 (centres undefined),inconclusive: 15%
2,COC(=O)[C@@H](NC(=O)N(Cc1ccncc1)C1CCN(C)CC1)C(C)C,inconclusive: 16%
3,CCn1cc(CN(Cc2ccsc2)C(C)C)cn1,inconclusive: 11%
4,O=C1c2cccc3cccc(c23)C(=O)N1CC1CCN(CC(O)COc2ccccc2F)CC1 (centres undefined),inconclusive: 12%
5,COc1ccc2cc3cc(C(=O)N4CCC(C(N)=O)CC4)sc3nc2c1,inconclusive: 13%
6,CCC(=O)Nc1ccc(OCC(=O)N2CCO[C@@H]3CCCC[C@H]32)cc1,inconclusive: 17%
7,O=C(NC[C@H]1O[C@@H](CO)[C@@H](O)[C@H]1N1CCc2ccccc2C1)Nc1ccc(F)cc1F,inactive
8,O=C(NCc1ccco1)c1ccc([N+](=O)[O-])cc1,inactive
9,CC1=C[C@@H](CNS(=O)(=O)c2cccc(C#N)c2)[C@H](C(C)C)C[C@H]1CC(=O)NCc1cccnc1,inconclusive: 22%
10,Cc1ccc(CN(C(=O)CCCN2CCCC2=O)C2CCCC2)s1,inconclusive: 16%
11,Cc1cccc(CN2CCN(C(=O)c3cc(C)c(C)n(C)c3=O)C(C)C2=O)c1 (centres undefined),inactive
12,O=C(Nc1nnc(-c2ccccc2Cl)o1)c1ccc(S(=O)(=O)N2CCCC2)cc1,inactive
13,COc1ccc(Cl)cc1S(=O)(=O)NCCOC12CC3CC(CC(C3)C1)C2,inconclusive: 16%
14,CC(=O)NC1C(OC2CCC3(C)C(CCC4(C)C3CC=C3C5CC(C)(C)CCC5(C(=O)O)C(O)CC34C)C2(C)C)OC(CO)C(O)C1O (centres undefined),inconclusive: 10%
15,COc1ccc(N2C(=O)C(O)=CC2(OC)c2ccccc2)cc1 (centres undefined),active: 45%
16,COc1ccc(C(=O)Nc2cccc(-c3nnc(-c4ccccc4)o3)c2)cc1,inconclusive: 21%
17,COc1ccc2c(=O)c(Oc3ccccc3Br)coc2c1,inconclusive: 16%
18,O=C(NCc1ccco1)c1cc(-c2ccncc2)nc2ccccc12,inconclusive: 15%
19,COc1ccc(-n2nc3c(c2NC(=O)C2(c4ccc(Cl)cc4)CCCC2)CS(=O)C3)cc1 (centres undefined),inactive
